Measurements reported in PubChem BioAssay AID504784 (Drosophila RNAi Screening Center, 2011)
The screen tested about 17,000 reagents; this is a random part of those with a known target gene and a result. 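Each column is one replicate's B-score; the combined score over replicates was not deposited, so single values may mislead.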

Screen: 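Search for regulators of lipid droplet storage in oleate-fed fly cells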 (primary screen)
Cells: Drosophila Kc167 embryonic cells
Reagent: long dsRNA against Drosophila genes, about 250 ng dsRNA per well
Time to read-out: 4 days
Challenge: cells fed 400 µM oleic acid bound to BSA
Read-out: 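Cells imaged and segmented; ratio of lipid droplet area to nuclear area, log-transformed, then normalised as a B-score over the screen; higher means more stored lipid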
Reading the numbers: droplet/nuclear area B-score: higher = more stored lipid (overstorage)

gene knocked down | DRSC id | droplet/nuclear area B-score, replicate 1 | droplet/nuclear area B-score, replicate 2 | droplet/nuclear area B-score, replicate 3
Tsp3A (Tetraspanin 3A) | DRSC18656 | -0.07 | -0.362 | –
CG4480 | DRSC02750 | -0.015 | -0.37 | –
EndoB (Endophilin B) | DRSC07345 | -0.501 | 0.71 | –
CG13216 | DRSC06338 | 2.47 | 2.41 | –
Nmdar2 (NMDA receptor 2) | DRSC18183 | -0.066 | 0.0273 | –
Nmdar2 (NMDA receptor 2) | DRSC18511 | 2.37 | -0.81 | –
Nmdar2 (NMDA receptor 2) | DRSC18569 | 0.393 | 0.245 | –
CG31534 (retired record) | DRSC12141 | 0.0288 | 1.1 | 0.00792
CG31534 (retired record) | DRSC12289 | 0.179 | 1.07 | –
Ilp7 (Insulin-like peptide 7) | DRSC17895 | 1.44 | -1.17 | –
Ir52d (Ionotropic receptor 52d) | DRSC06264 | 0.0227 | 0.904 | –
EndoA (Endophilin A) | DRSC14775 | 0.516 | -0.052 | –
CG10834 | DRSC03693 | -0.522 | -0.195 | –
Gr9a (Gustatory receptor 9a) | DRSC22506 | 1.64 | -1.2 | –
CG31054 (retired record) | DRSC22134 | -0.0558 | 0.429 | –
CG2202 | DRSC19841 | -0.405 | 0.418 | -0.123
Nubp2 (NUBP iron-sulfur cluster assembly factor 2) | DRSC11758 | -1.14 | -0.00137 | –
CG11899 | DRSC16656 | 0.797 | 0.0273 | –
CG10660 | DRSC09769 | 2.88 | 3.44 | –
TTLL3B (Tubulin tyrosine ligase-like 3B) | DRSC02133 | 0.379 | 0.142 | –
Phae2 (Phaedra 2) | DRSC02555 | 0.38 | -1.13 | –
CG7083 | DRSC11136 | 0.3 | -0.034 | –
barr (barren) | DRSC03488 | 1.91 | 1.73 | –
CG4949 | DRSC19926 | 0.723 | 0.703 | –
TrxT (Thioredoxin T) | DRSC22182 | -0.958 | -1.63 | –
TrxT (Thioredoxin T) | DRSC23117 | -0.582 | -0.685 | –
Spase22-23 (Spase 22/23-subunit) | DRSC15857 | 0.00463 | 0.0699 | –
RpS25 (Ribosomal protein S25) | DRSC16837 | 0.508 | 1.89 | –
Smu1 (Smu1 spliceosomal factor) | DRSC15803 | -1.03 | -3.13 | –
ATPsynCF6L (ATP synthase, coupling factor 6-like) | DRSC08232 | -1.61 | 0.0305 | –
CG34425 | DRSC12210 | 0.0556 | -0.131 | –
CG34425 | DRSC22315 | -0.932 | 0.215 | –
COX7B (Cytochrome c oxidase subunit 7B) | DRSC10895 | 8.8 | 9.11 | –
CG14431 | DRSC17925 | 0.162 | -0.709 | –
Ubc4 (Ubiquitin conjugating enzyme 4) | DRSC11312 | 0.154 | 0.0947 | –
ocm (over compensating males) | DRSC04360 | 2.1 | 3.2 | –
CG1924 | DRSC19823 | 0.336 | 0.166 | -0.39
CG15185 | DRSC12565 | -0.0621 | -0.375 | –
Rpt3 (Regulatory particle triple-A ATPase 3) | DRSC20283 | 0.0195 | 1.32 | 0.0326
ND-MLRQ (NADH dehydrogenase (ubiquinone) MLRQ subunit) | DRSC11913 | 3.32 | -0.0462 | –
promL (prominin-like) | DRSC08733 | 0.742 | 1.34 | –
CG6834 | DRSC16125 | -0.213 | -0.315 | –
CG8476 | DRSC16426 | 2.03 | 0.674 | –
SPARC (Secreted protein, acidic, cysteine-rich) | DRSC14123 | 1.75 | -0.0741 | –
TpnC41C (Troponin C at 41C) | DRSC04916 | 0.791 | 1.37 | –
PolZ2 (DNA polymerase zeta subunit 2) | DRSC12325 | -0.593 | -0.395 | –
List (Lithium-inducible SLC6 transporter) | DRSC06520 | 0.588 | -0.915 | –
Eip75B (Ecdysone-induced protein 75B) | DRSC11161 | -2.52 | 2.6 | 1.35
Eip75B (Ecdysone-induced protein 75B) | DRSC23047 | -0.711 | 1.36 | –
MBD-R2 | DRSC14180 | 0.0131 | 1.27 | –
fw (furrowed) | DRSC20334 | -1.08 | 0.994 | -0.0202
Rad9 | DRSC11263 | -0.262 | -0.396 | 0.415
CG5225 | DRSC15742 | -2.36 | -0.72 | –
CG8026 | DRSC07055 | -1.36 | -0.125 | -2.14
CG8026 | DRSC07056 | 0.341 | -0.471 | –
CG10749 | DRSC09798 | -0.403 | -0.034 | –
Cpr66Cb (Cuticular protein 66Cb) | DRSC10769 | 0.491 | 1.99 | –
Or33b (Odorant receptor 33b) | DRSC03387 | 0.083 | -0.0726 | –
CG8757 | DRSC11039 | -0.463 | 0.2 | –
CG17378 | DRSC02616 | -1.73 | -1.02 | –
CG15207 (retired record) | DRSC19653 | -1.64 | -0.292 | 0.657
CG15207 (retired record) | DRSC22791 | 0.288 | 1.25 | –
FASN1 (Fatty acid synthase 1) | DRSC00268 | -0.136 | -1.44 | –
Pif1A (PFTAIRE-interacting factor 1A) | DRSC14383 | -0.678 | -0.755 | –
SecCl (Secretory chloride channel) | DRSC10887 | -0.316 | -0.323 | –
SdhC (Succinate dehydrogenase, subunit C) | DRSC16088 | 1.21 | 4.45 | –
CG31189 | DRSC16198 | -0.0975 | 0.828 | –
TwdlO (TweedleO) | DRSC16043 | 0.681 | 0.348 | –
CG1907 | DRSC15399 | 0.108 | – | –
CG4338 | DRSC15564 | -0.812 | – | –
CG5618 | DRSC11780 | 0.752 | 1.01 | -1.49
CG31195 | DRSC13440 | 0.404 | -1.46 | –
Pex7 (Peroxin 7) | DRSC10651 | -0.794 | -1.58 | –
Cse1 (Chromosome segregation 1) | DRSC03287 | 1.07 | 0.0575 | 0.0106
Dna2 (DNA replication helicase/nuclease 2) | DRSC18254 | 1.71 | 0.106 | 0.311
CG10211 | DRSC02027 | -0.662 | -0.928 | –
CG32762 | DRSC18298 | -0.297 | -0.0141 | -1.5
CG32830 (retired record) | DRSC01162 | 0.041 | 0.119 | –
CG32830 (retired record) | DRSC23151 | 0.893 | -0.904 | –
Ama (Amalgam) | DRSC12489 | -0.0151 | 0.276 | –
RpLP2 (Ribosomal protein LP2) | DRSC07539 | 1.82 | 4.03 | –
Ir94d (Ionotropic receptor 94d) | DRSC21568 | 0.192 | 0.551 | –
zen (zerknullt) | DRSC12632 | 1.16 | -0.251 | –

9 entries already listed, arranged by “droplet/nuclear area B-score, replicate 2”, ascending.
gene knocked down | DRSC id | droplet/nuclear area B-score, replicate 1 | droplet/nuclear area B-score, replicate 2 | droplet/nuclear area B-score, replicate 3
CG5225 | DRSC15742 | -2.36 | -0.72 | –
CG8026 | DRSC07056 | 0.341 | -0.471 | –
Rad9 | DRSC11263 | -0.262 | -0.396 | 0.415
CG8026 | DRSC07055 | -1.36 | -0.125 | -2.14
Or33b (Odorant receptor 33b) | DRSC03387 | 0.083 | -0.0726 | –
CG10749 | DRSC09798 | -0.403 | -0.034 | –
CG8757 | DRSC11039 | -0.463 | 0.2 | –
fw (furrowed) | DRSC20334 | -1.08 | 0.994 | -0.0202
Cpr66Cb (Cuticular protein 66Cb) | DRSC10769 | 0.491 | 1.99 | –
